In the supplement of paper PMC7877785:
± gives the uncertainty stated by the source. The uncertainty is large for many entries.

Test: self-splicing fitness, log relative to wild type (ln ratio); higher = more splicing; Tetrahymena group I intron in knt gene, E. coli kanamycin selection, DiMSum; sequences stand for … in CUCUCU…GGAGGGAAAAGUUAUCAGGCAUGCACCUGGUAGCUAGUCUUUAAACCAAUAGAUUGCAUCGGUUUAAAAGGCAAGACCGUCAAAUUGCGGGAAAGGGGUCAACAGCCGUUCAGUACCAAGUCUCAGGGGAAACUUUGAGAUGGCCUUGCAAAGGGUAUGGUAAUAAGCUGACGGACAUGGUCCUAACCACGCAGCCAAGUCCUAAGUCAACAGAUCUUCUGUUGAUAUGGAUGCAGUUCACAGACUAAAUGUCGGUCGGGGAAGAUGUAUUCUUCUCAUAAGAUAUAGUCGGACCUCUCCUUAAUGGGAGCUAGCGGAUGAAGUGAUGCAACACUGGAGCCGCUGGGAACUAAUUUGUAUGCGAAAGUAUAUUGAUUAGUUUUGGAGUACUCGUGGUCG
Summary of the method: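 The eight P1ex-region nucleotides of an intron in the knt kanamycin-resistance gene on pET-22b(+) were all randomised and the library put into E. coli BL21(DE3). Six replicate transformations were grown overnight at 37°C or 30°C on LB agar with or without 25 μg/mL kanamycin, together with 100 μg/mL carbenicillin, 50 μM IPTG and 0.2% rhamnose. Colonies were pooled and amplicon-sequenced on an Illumina HiSeq 2500. Fitness from DiMSum is the error-weighted combination of wild-type-normalised replicate fold changes, kanamycin over none.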

Sequence	self-splicing fitness (ln) (30 °C)	self-splicing fitness (ln) (37 °C)
UCAUAGCAAUAUUACGCUUA	-1.98 ± 0.55	–
UUUCAGCAAUAUUACGGCGA	-0.344 ± 0.093	0.167 ± 0.13
CGGGAGCAAUAUUACGACGA	–	-2.57 ± 0.51
UAUAAGCAAUAUUACGCACC	-1.82 ± 0.3	-1.42 ± 0.3
UCGUAGCAAUAUUACGCUUC	–	-1.79 ± 0.57
GGGGAGCAAUAUUACGACAA	–	-1.85 ± 0.67
UUGAAGCAAUAUUACGAAGU	-3.34 ± 0.19	-1.69 ± 0.21
CUCGAGCAAUAUUACGUACA	-3.67 ± 0.75	-2.02 ± 0.6
ACGCAGCAAUAUUACGAGAC	-5.22 ± 1	-1.94 ± 0.56
CGAGAGCAAUAUUACGUCUU	-3.66 ± 0.43	-1.39 ± 0.22
ACCUAGCAAUAUUACGGGUG	-1.47 ± 0.071	-1.1 ± 0.087
AGUAAGCAAUAUUACGACUG	-1.45 ± 0.12	0.23 ± 0.15
GCAUAGCAAUAUUACGUUCC	-2.21 ± 1.1	–
AGUGAGCAAUAUUACGCCCC	-1.96 ± 0.87	–
UCGUAGCAAUAUUACGCAAC	-3.51 ± 0.52	–
CGGAAGCAAUAUUACGGCGA	–	-1.32 ± 0.62
CUCCAGCAAUAUUACGCUGG	–	-3.71 ± 0.59
CGCGAGCAAUAUUACGAAUC	–	-2.5 ± 0.79
UAUGAGCAAUAUUACGCAGC	-2.49 ± 0.51	–
GCGUAGCAAUAUUACGCAGA	-3.46 ± 1.1	-1.79 ± 0.82
CUUAAGCAAUAUUACGUAUC	-3.91 ± 0.52	–
CUUUAGCAAUAUUACGUUAC	-3.92 ± 0.34	-1.74 ± 0.29
GGGGAGCAAUAUUACGCAGA	-3.66 ± 0.52	–

Record cards, as listed above.
CGGGAGCAAUAUUACGACGA in the list: self-splicing fitness (ln) (37 °C): -2.57 ± 0.51
GGGGAGCAAUAUUACGCAGA in the list: self-splicing fitness (ln) (30 °C): -3.66 ± 0.52

Single entries from above.
In self-splicing fitness (ln) (37 °C), CUUUAGCAAUAUUACGUUAC reads -1.74 ± 0.29
In self-splicing fitness (ln) (30 °C), UCGUAGCAAUAUUACGCAAC reads -3.51 ± 0.52

(further entries)

Sequence	self-splicing fitness (ln) (30 °C)	self-splicing fitness (ln) (37 °C)
AUAUAGCAAUAUUACGAGGC	–	-2.75 ± 0.53
UGGUAGCAAUAUUACGGAGU	–	-3.39 ± 0.6
GUAUAGCAAUAUUACGUUAA	-2.13 ± 0.61	-3.17 ± 0.52
GGAGAGCAAUAUUACGCCAC	0.0882 ± 0.84	–
AGUUAGCAAUAUUACGCCAG	–	-1.1 ± 0.76
UGCCAGCAAUAUUACGCCUG	-2.1 ± 0.16	-0.0397 ± 0.12
AGCGAGCAAUAUUACGUCCG	-4.04 ± 1.1	-0.595 ± 1.4
UCUCAGCAAUAUUACGUGUA	-1.47 ± 0.089	-0.902 ± 0.08
CGCGAGCAAUAUUACGAAGC	-4.24 ± 0.74	–
GUUUAGCAAUAUUACGCGGC	–	-1.33 ± 0.82
AACUAGCAAUAUUACGUUGU	-3.51 ± 0.13	-2.29 ± 0.12
CUCUAGCAAUAUUACGGGCC	-4.05 ± 0.72	-2.59 ± 0.62
UGCGAGCAAUAUUACGCCAC	–	-1.25 ± 0.7
UUCAAGCAAUAUUACGCGUU	-2.62 ± 0.12	-0.189 ± 0.09
UUUGAGCAAUAUUACGAUCG	-2.23 ± 0.23	-1.81 ± 0.29
AGCGAGCAAUAUUACGUUCC	-2.86 ± 0.61	-1.3 ± 0.24
CCAUAGCAAUAUUACGUUGA	-3.57 ± 0.26	-2.31 ± 0.15
CUCCAGCAAUAUUACGGAUC	-1.86 ± 0.099	-1.47 ± 0.14
GUCGAGCAAUAUUACGCAAA	–	-1.81 ± 0.53
UCGCAGCAAUAUUACGUACU	-4.03 ± 0.6	–
UAUUAGCAAUAUUACGCCGC	-1.82 ± 0.73	0.608 ± 1.1
AUAGAGCAAUAUUACGGACG	-2.69 ± 0.22	-0.981 ± 0.19
ACUGAGCAAUAUUACGUAAA	-3.02 ± 0.53	–

Sequence	self-splicing fitness (ln) (30 °C)	self-splicing fitness (ln) (37 °C)
CGUGAGCAAUAUUACGCACC	–	-2.44 ± 0.54
CAAGAGCAAUAUUACGCCAU	-3.2 ± 0.23	-2.02 ± 0.28
UCAUAGCAAUAUUACGGGGC	-4.21 ± 1	–
UUGUAGCAAUAUUACGUCAC	–	-2.17 ± 0.51
CUAUAGCAAUAUUACGUAGC	-4.05 ± 0.31	-3.11 ± 0.43
GGCUAGCAAUAUUACGGCCU	–	-2.06 ± 0.65
CGGGAGCAAUAUUACGAUAC	-2.79 ± 0.8	–
UCAAAGCAAUAUUACGAACC	-2.8 ± 0.27	-0.879 ± 0.28
AAUGAGCAAUAUUACGCCGU	-3.4 ± 0.52	–
UCCAAGCAAUAUUACGGAAC	-5.09 ± 1	–
AUACAGCAAUAUUACGAAAC	-4.34 ± 0.72	–
AGUGAGCAAUAUUACGUGAC	-2.02 ± 0.35	-2.39 ± 0.32
ACUAAGCAAUAUUACGCCAU	-3.48 ± 0.61	–
GGAGAGCAAUAUUACGUUAC	-3.41 ± 0.6	-2.67 ± 0.53
UGUGAGCAAUAUUACGCUAC	–	-3.49 ± 0.52
AAGAAGCAAUAUUACGCUUC	–	-3.2 ± 0.53
UUAGAGCAAUAUUACGAGAC	-2.5 ± 0.73	-2.67 ± 1.1
UAAUAGCAAUAUUACGCUUC	-5.43 ± 1	–
AGUGAGCAAUAUUACGGCCC	–	-0.085 ± 0.55
GAUCAGCAAUAUUACGCUCC	-4.04 ± 1.1	-1.83 ± 0.82
GUAGAGCAAUAUUACGAUAG	-2.06 ± 0.15	-1.42 ± 0.14
UAACAGCAAUAUUACGUUUA	-0.893 ± 0.063	-0.563 ± 0.071
AUGAAGCAAUAUUACGCCUG	-0.59 ± 0.092	-0.209 ± 0.11

Sequence	self-splicing fitness (ln) (30 °C)	self-splicing fitness (ln) (37 °C)
CUGCAGCAAUAUUACGAUCC	-3.06 ± 1.1	-2.06 ± 0.51
UUAGAGCAAUAUUACGUCUU	-1.62 ± 0.097	-0.85 ± 0.13
UUGUAGCAAUAUUACGACAU	-0.918 ± 0.015	-0.322 ± 0.034
CUUGAGCAAUAUUACGGCCG	-3.37 ± 0.56	–
CAUCAGCAAUAUUACGCUUC	-2.2 ± 0.18	-0.251 ± 0.12
CGCUAGCAAUAUUACGCUCC	–	-2.54 ± 1.1
GUGGAGCAAUAUUACGGAAC	-4.46 ± 1	–
GUGGAGCAAUAUUACGGUGG	-3.76 ± 0.23	-2.5 ± 0.23
CUACAGCAAUAUUACGGCCA	-3 ± 0.28	-4.28 ± 0.51
UUAUAGCAAUAUUACGUCGC	-3.41 ± 0.77	-2.97 ± 0.74
AUGUAGCAAUAUUACGUCAA	-2.9 ± 0.3	-2.98 ± 0.35
UUGGAGCAAUAUUACGGAUU	-4.04 ± 0.52	-2.57 ± 0.55
CUAGAGCAAUAUUACGGAAA	–	-2.03 ± 1.1
UGGUAGCAAUAUUACGAAGC	-3.66 ± 1	-4.49 ± 1
CCGUAGCAAUAUUACGACAG	-0.678 ± 0.11	-0.234 ± 0.13
UUUGAGCAAUAUUACGGACA	-3.12 ± 0.76	–
UCGGAGCAAUAUUACGACCC	-1.93 ± 1.2	–
UUUUAGCAAUAUUACGCAGG	-1.33 ± 0.12	-1.03 ± 0.16
CGGGAGCAAUAUUACGCAAA	-3.33 ± 0.52	–
GGAGAGCAAUAUUACGCUCC	-4.49 ± 1	–
AGCGAGCAAUAUUACGCUAU	-4.56 ± 0.51	–
CUCCAGCAAUAUUACGUCAA	-3.08 ± 0.19	-3.24 ± 0.23
UUUGAGCAAUAUUACGAGGC	–	-4.08 ± 0.59

Sequence	self-splicing fitness (ln) (30 °C)	self-splicing fitness (ln) (37 °C)
CCUAAGCAAUAUUACGGAUC	-4.74 ± 0.58	-2.09 ± 0.58
GUGUAGCAAUAUUACGCAAG	-2.1 ± 0.55	-2.43 ± 0.76
AGAAAGCAAUAUUACGCCGC	–	-1.29 ± 0.58
GUUGAGCAAUAUUACGAAAC	–	-1.98 ± 0.78
UCGUAGCAAUAUUACGGCCC	-1.2 ± 0.61	-1.99 ± 0.52
AAUGAGCAAUAUUACGGAAC	–	-3.26 ± 1
UCGAAGCAAUAUUACGGUGC	–	-2.08 ± 0.51
CACCAGCAAUAUUACGCGCC	-2.68 ± 0.17	-2.4 ± 0.2
GUGAAGCAAUAUUACGGCCC	–	1.1 ± 0.53
AGCGAGCAAUAUUACGUCUC	-3.21 ± 1.1	-2.54 ± 0.77
UCCCAGCAAUAUUACGCAAG	-3.45 ± 0.16	-2.69 ± 0.21
UCAGAGCAAUAUUACGCAUC	-3.61 ± 0.73	-3.33 ± 1
CCGGAGCAAUAUUACGAAUC	–	-3.28 ± 0.52
UACGAGCAAUAUUACGUCCC	-2.58 ± 0.82	–
GGCAAGCAAUAUUACGAAAG	-2.97 ± 0.28	-2.24 ± 0.56
CCGGAGCAAUAUUACGCAAG	-4.81 ± 0.72	-3.39 ± 1
UGGUAGCAAUAUUACGAGAA	-1.65 ± 0.57	–
AGAGAGCAAUAUUACGUCAG	–	-2.48 ± 0.5
GAGGAGCAAUAUUACGCACG	-3.96 ± 0.76	–
AUAAAGCAAUAUUACGAGAG	-2.29 ± 0.18	-1.03 ± 0.15
GGGGAGCAAUAUUACGGCCU	-2.65 ± 1.1	-2.49 ± 0.5
CGUAAGCAAUAUUACGUCAC	-4.76 ± 1	–
GUUCAGCAAUAUUACGGGCU	-3.26 ± 0.74	–
